Laboratory results taken from patent publication US20240366776A1 (Hoffmann-La Roche, published 2024).
These are yes or no findings as the source states them, for the method shown. Some entries that bind do so weakly or less than the wild type.

By UniProt entry, the sequences of proteins in these tests, tags left out. Residues count along the entry.
UniProt Q15116, residues 25-167: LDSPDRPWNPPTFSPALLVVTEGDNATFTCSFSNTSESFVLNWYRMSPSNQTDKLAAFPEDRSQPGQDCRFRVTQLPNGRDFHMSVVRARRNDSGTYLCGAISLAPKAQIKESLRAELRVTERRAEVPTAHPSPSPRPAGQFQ
UniProt P60568, residues 21-153: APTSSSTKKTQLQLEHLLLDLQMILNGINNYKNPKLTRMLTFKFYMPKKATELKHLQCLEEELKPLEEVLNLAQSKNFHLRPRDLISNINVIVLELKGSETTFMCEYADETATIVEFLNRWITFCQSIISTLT

Columns and labels:
[1] = target: biotinylated recombinant PD1 (PD1-HisAvi, Acro Biosystems PD1-H82E4) (UniProt Q15116); assay: ELISA
IL2 (R&D, 202-IL) = IL2 (R&D, 202-IL) (UniProt P60568); assay: ELISA

B1: AB002328_2B07v4 scFv (AF005041) (scFv, V domains shown)
VH: QVQLVQSGAEVKKPGASVKVSCKASGDTFTRYYVHWVRQAPGQGLEWMGIINPSGGYASYAQKFQGRVTMTRDTSTSTVYMELSSLRSEDTAVYYCAAGLFIWGQGTLVTVSS
VL: DIQMTQSPSSLSASVGDRVTITCRASQSIGRWLAWYQQKPGKAPKLLIYSASNLETGVPSRFSGSGSGTDFTLTISSLQPEDFATYYCQQYNRFPVTFGPGTKVDIK
binding [1]: binds
binding (IL2 (R&D, 202-IL)): binds

B2: AB003174_2B07v11 scFv (AF005062) (scFv)
scFv: MSTSTQVQLVQSGAEVKKPGASVKVSCKASGDTFTRYYVHWVRQAPGQGLEWMGIINPSGGYASYAQKFQGRVTMTRDTSTSTVYMELSSLRSEDTAVYYCAAGLFIWGQGTLVTVSSGGGGSGGGGSGGGGSGGGGSDIQMTQSPSSLSASVGDRVTITCRASQSIGRELAWYQQKPGKAPKLLIYSASNLETGVPSRFSGSGSGTDFTLTISSLQPEDFATYYCQQYNRFPVTFGPGTKVDIKEQKLISEEDLGSGLNDIFEAQKIEWHEGKPIPNPLLGLDST
binding [1]: binds
binding (IL2 (R&D, 202-IL)): binds

B3: AB003180_2B07v13 scFv (AF005068) (scFv)
scFv: MSTSTQVQLVQSGAEVKKPGASVKVSCKASGDEFTRYYVHWVRQAPGQGLEWMGIQNPSGGYASYAQKFQGRVTMTRDTSTSTVYMELSSLRSEDTAVYYCAAGLFIWGQGTLVTVSSGGGGSGGGGSGGGGSGGGGSDIQMTQSPSSLSASVGDRVTITCRASQSIGRWLAWYQQKPGKAPKLLIYSASNLETGVPSRFSGSGSGTDFTLTISSLQPEDFATYYCQQYNRFPVTFGPGTKVDIKEQKLISEEDLGSGLNDIFEAQKIEWHEGKPIPNPLLGLDST
binding [1]: binds
binding (IL2 (R&D, 202-IL)): binds

B4: AB003183_2B07v14 scFv (AF005071) (scFv)
scFv: MSTSTQVQLVQSGAEVKKPGASVKVSCKASGDEFTRYYVHWVRQAPGQGLEWMGIQNPSGGYASYAQKFQGRVTMTRDTSTSTVYMELSSLRSEDTAVYYCAAGLFIWGQGTLVTVSSGGGGSGGGGSGGGGSGGGGSDIQMTQSPSSLSASVGDRVTITCRASQSIGRELAWYQQKPGKAPKLLIYDASNLETGVPSRFSGSGSGTDFTLTISSLQPEDFATYYCQQYNRFPVTFGPGTKVDIKEQKLISEEDLGSGLNDIFEAQKIEWHEGKPIPNPLLGLDST
binding [1]: binds
binding (IL2 (R&D, 202-IL)): binds

B5: AB003178_2B07v12 scFv (AF005066) (scFv)
scFv: MSTSTQVQLVQSGAEVKKPGASVKVSCKASGDEFTRYYVHWVRQAPGQGLEWMGIINPSGGYASYAQKFQGRVTMTRDTSTSTVYMELSSLRSEDTAVYYCAAGLFIWGQGTLVTVSSGGGGSGGGGSGGGGSGGGGSDIQMTQSPSSLSASVGDRVTITCRASQSIGRWLAWYQQKPGKAPKLLIYSASNLETGVPSRFSGSGSGTDFTLTISSLQPEDFATYYCQQYNRFPVTFGPGTKVDIKEQKLISEEDLGSGLNDIFEAQKIEWHEGKPIPNPLLGLDST
binding [1]: binds
binding (IL2 (R&D, 202-IL)): binds

B6: AB003007_7A04v6 scFv (AF005087) (scFv)
scFv: MSTSTQVQLVQSGAEVKKPGASVKVSCKASGYTFTRYYMHWVRQAPGQGLEWMGIINPRAGYTSYALKFQGRVTMTRDTSTSTVYMELSSLRSEDTAVYYCTSGWEVWGQGTLVTVSSGGGGSGGGGSGGGGSGGGGSDIQMTQSPSSLSASVGDRVTITCRASQSISTWLAWYQQKPGKAPKLLIYAASSLDEGVPSRFSGSGSGTDFTLTISSLQPEDFATYYCQQSYSFPVTFGQGTKVEIKEQKLISEEDLGSGLNDIFEAQKIEWHEGKPIPNPLLGLDST
binding [1]: binds
binding (IL2 (R&D, 202-IL)): binds

B7: AB002365_7A04v2 scFv (AF005095) (scFv, V domains shown)
VH: QVQLVQSGAEVKKPGASVKVSCKASGYTFTRYYMHWVRQAPGQGLEWMGIINPRAGYTSYALKFQGRVTMTRDTSTSTVYMELSSLRSEDTAVYYCTSGWDVWGQGTLVTVSS
VL: DIQMTQSPSSLSASVGDRVTITCRASQSISTWLAWYQQKPGKAPKLLIYAASSLDSGVPSRFSGSGSGTDFTLTISSLQPEDFATYYCQQSYSFPVTFGQGTKVEIK
binding [1]: binds
binding (IL2 (R&D, 202-IL)): binds

B8: AB003012_7A04v7 scFv (AF005092) (scFv)
scFv: MSTSTQVQLVQSGAEVKKPGASVKVSCKASGYTFTRYYMHWVRQAPGQGLEWMGIINPRAGYTSYALKFQGRVTMTRDTSTSTVYMELSSLRSEDTAVYYCTSGWDVWGQGTLVTVSSGGGGSGGGGSGGGGSGGGGSDIQMTQSPSSLSASVGDRVTITCRASQSISTWLAWYQQKPGKAPKLLIYAASSLDEGVPSRFSGSGSGTDFTLTISSLQPEDFATYYCQQSYSFPVTFGQGTKVEIKEQKLISEEDLGSGLNDIFEAQKIEWHEGKPIPNPLLGLDST
binding [1]: binds
binding (IL2 (R&D, 202-IL)): binds

B9: AB003005_7A04v5 scFv (AF005085) (scFv)
scFv: MSTSTQVQLVQSGAEVKKPGASVKVSCKASGYTFTRYYMHWVRQAPGQGLEWMGIIQPRAGYTSYALKFQGRVTMTRDTSTSTVYMELSSLRSEDTAVYYCTSGWDVWGQGTLVTVSSGGGGSGGGGSGGGGSGGGGSDIQMTQSPSSLSASVGDRVTITCRASQSISTWLAWYQQKPGKAPKLLIYAASSLDEGVPSRFSGSGSGTDFTLTISSLQPEDFATYYCQQSYSFPVTFGQGTKVEIKEQKLISEEDLGSGLNDIFEAQKIEWHEGKPIPNPLLGLDST
binding [1]: binds
binding (IL2 (R&D, 202-IL)): binds

B10: AB002864_2A11v6 scFv (AF005116) (scFv)
scFv: MSTSTQVQLVQSGAEVKKPGASVKVSCKASGHTFTRYYMHWVRQAPGQGLEWMGVINPSGGYATYAQKFQGRVTMTRDTSTSTVYMELSSLRSEDTAVYYCASGWDVWGQGTLVTVSSGGGGSGGGGSGGGGSGGGGSDIQMTQSPSSLSASVGDRVTITCRASQSINSWLAWYQQKPGKAPKLLIYATSTLESGVPSRFSGSGSGTDFTLTISSLQPEDFATYYCQQSYSSPVTFGQGTKVEIKEQKLISEEDLGSGLNDIFEAQKIEWHEGKPIPNPLLGLDST
binding [1]: binds
binding (IL2 (R&D, 202-IL)): binds

B11: AB002360_7A04v1 scFv (AF003765) (scFv)
scFv: MSTSTQVQLVQSGAEVKKPGASVKVSCKASGYTFTDYYMHWVRQAPGQGLEWMGIINPRAGYTSYALKFQGRVTMTRDTSTSTVYMELSSLRSEDTAVYYCTSGWDVWGQGTLVTVSSASGGGGSGGGGSGGGGSHASDIQMTQSPSSLSASVGDRVTITCRASQSISTWLAWYQQKPGKAPKLLIYAASSLDSGVPSRFSGSGSGTDFTLTISSLQPEDFATYYCQQSYSFPVTFGQGTKVEIKAAAGSGSEQKLISEEDLGKPIPNPLLGLDST
binding [1]: binds
binding (IL2 (R&D, 202-IL)): binds

B12: AB002365_7A04v2 scFv (AF003770) (scFv, V domains shown)
VH: QVQLVQSGAEVKKPGASVKVSCKASGYTFTRYYMHWVRQAPGQGLEWMGIINPRAGYTSYALKFQGRVTMTRDTSTSTVYMELSSLRSEDTAVYYCTSGWDVWGQGTLVTVSS
VL: DIQMTQSPSSLSASVGDRVTITCRASQSISTWLAWYQQKPGKAPKLLIYAASSLDSGVPSRFSGSGSGTDFTLTISSLQPEDFATYYCQQSYSFPVTFGQGTKVEIK
binding [1]: binds
binding (IL2 (R&D, 202-IL)): binds

B13: AB002370_7A04v3 scFv (AF003775) (scFv)
scFv: MSTSTQVQLVQSGAEVKKPGASVKVSCKASGYTFTTYYMHWVRQAPGQGLEWMGIINPRAGYTSYALKFQGRVTMTRDTSTSTVYMELSSLRSEDTAVYYCTSGWDVWGQGTLVTVSSASGGGGSGGGGSGGGGSHASDIQMTQSPSSLSASVGDRVTITCRASQSISTWLAWYQQKPGKAPKLLIYAASSLDSGVPSRFSGSGSGTDFTLTISSLQPEDFATYYCQQSYSFPVTFGQGTKVEIKAAAGSGSEQKLISEEDLGKPIPNPLLGLDST
binding [1]: binds
binding (IL2 (R&D, 202-IL)): binds

B14: AB002381_7A04v4 scFv (AF003786) (scFv)
scFv: MSTSTQVQLVQSGAEVKKPGASVKVSCKASGDTFTDYYMHWVRQAPGQGLEWMGIINPRAGYTSYALKFQGRVTMTRDTSTSTVYMELSSLRSEDTAVYYCTSGWDVWGQGTLVTVSSASGGGGSGGGGSGGGGSHASDIQMTQSPSSLSASVGDRVTITCRASQSISTWLAWYQQKPGKAPKLLIYAASSLDSGVPSRFSGSGSGTDFTLTISSLQPEDFATYYCQQSYSFPVTFGQGTKVEIKAAAGSGSEQKLISEEDLGKPIPNPLLGLDST
binding [1]: binds
binding (IL2 (R&D, 202-IL)): binds

B15: AB002410_2A11v2 scFv (AF003815) (scFv)
scFv: MSTSTQVQLVQSGAEVKKPGASVKVSCKASGHTFTRYYMHWVRQAPGQGLEWMGIINPSGGYATYAQKFQGRVTMTRDTSTSTVYMELSSLRSEDTAVYYCASGWFVWGQGTLVTVSSASGGGGSGGGGSGGGGSHASDIQMTQSPSSLSASVGDRVTITCRASQSINSWLAWYQQKPGKAPKLLIYDTSTLESGVPSRFSGSGSGTDFTLTISSLQPEDFATYYCQQSYSFPVTFGQGTKVEIKAAAGSGSEQKLISEEDLGKPIPNPLLGLDST
binding [1]: binds
binding (IL2 (R&D, 202-IL)): binds

B16: AB002413_2A11v3 scFv (AF003818) (scFv, V domains shown)
VH: QVQLVQSGAEVKKPGASVKVSCKASGHTFTRYYMHWVRQAPGQGLEWMGIINPSGGYATYAQKFQGRVTMTRDTSTSTVYMELSSLRSEDTAVYYCASGLFIWGQGTLVTVSS
VL: DIQMTQSPSSLSASVGDRVTITCRASQSINSWLAWYQQKPGKAPKLLIYATSTLESGVPSRFSGSGSGTDFTLTISSLQPEDFATYYCQQYYRFPVTFGQGTKVEIK
binding [1]: binds
binding (IL2 (R&D, 202-IL)): binds

B17: AB002417_2A11v4 scFv (AF003822) (scFv, V domains shown)
VH: QVQLVQSGAEVKKPGASVKVSCKASGHTFTRYYMHWVRQAPGQGLEWMGIINPSGGYATYAQKFQGRVTMTRDTSTSTVYMELSSLRSEDTAVYYCASGLFIWGQGTLVTVSS
VL: DIQMTQSPSSLSASVGDRVTITCRASQSINSWLAWYQQKPGKAPKLLIYATSTLESGVPSRFSGSGSGTDFTLTISSLQPEDFATYYCQQYYSFPVTFGQGTKVEIK
binding [1]: binds
binding (IL2 (R&D, 202-IL)): binds

B18: AB002427_2A11v5 scFv (AF003832) (scFv, V domains shown)
VH: QVQLVQSGAEVKKPGASVKVSCKASGHTFTRYYMHWVRQAPGQGLEWMGIINPSGGYATYAQKFQGRVTMTRDTSTSTVYMELSSLRSEDTAVYYCASGLFIWGQGTLVTVSS
VL: DIQMTQSPSSLSASVGDRVTITCRASQSINSWLAWYQQKPGKAPKLLIYATSTLESGVPSRFSGSGSGTDFTLTISSLQPEDFATYYCQQSYRFPVTFGQGTKVEIK
binding [1]: binds
binding (IL2 (R&D, 202-IL)): binds
